# Results from PubChem BioAssay AID248 (DTP/NCI, 2004).
# The list shows only some results of the screen, not a fair sample: it gathers tests that were run many times, whatever their T/C, doses with no T/C, and many T/C values between a quarter and a half above the control. Other doses and runs of a compound stand elsewhere. T/C: endpoint of the treated group in % of that of the vehicle group. Some entries give survivors of the animals treated and no T/C: the source holds a T/C of zero for them, seemingly a mark for toxic or unscored doses. Some survivor counts are full or nearly so, which does not show that the dose was tolerated: the source hardly ever lists a survival T/C far under the control, and the zero likely stands for such cases as well. Survivors were counted at the toxicity check, usually on the fifth day, unless a day is given; later deaths do not show. Schedule codes are those of the source, taken here to give the interval after Q, in days (D) or hours (H), and the number of doses after X. Some doses were run more than once; the values are given in rising order. Some schedules carry Z or #; the key to these is not given. Where survival is the endpoint, this PubChem deposit counts one and a half times the control or more as active, and values a quarter to a half above the control carry no call in these data; other NCI protocols may use other cut-offs. Some T/C values carry the count of animals alive at the toxicity check (mostly the fifth day); where none is given, no animal had died by that day. Signs of the kind (2×) stand for listed records that agree.
# Test system: L1210 leukemia ip in BDF1 mice, survival T/C
# Test: NCI In Vivo Anticancer Drug Screen. Data for tumor model L1210 Leukemia (intraperitoneal) in B6D2F1 (BDF1) mice
# Conditions: T/C endpoint: mean survival time, higher T/C = longer survival
# [1] = dose: 100.0 mg/kg/injection, schedule: Q04DX003 (ip), vehicle: Klucel (hydroxypropylcellulose) (HPC)
# [2] = dose: 600.0 mg/kg/injection, schedule: Q01DX001 (ip), vehicle: carboxymethylcellulose (CMC)
# [3] = dose: 200.0 mg/kg/injection, schedule: Q01DX009 (ip), vehicle: saline with Tween-80
# [4] = dose: 400.0 mg/kg/injection, schedule: Q01DX009 (ip), vehicle: saline with Tween-80
# [5] = dose: 200.0 mg/kg/injection, schedule: Q01DX009 (ip), vehicle: Klucel (hydroxypropylcellulose) (HPC)
# [6] = dose: 50.0 mg/kg/injection, schedule: Q01DX009 (ip), vehicle: saline with Tween-80
structure (smiles),measurement,setting,value
COc1cc2c(c(OC)c1OC)-c1cc(I)c(O)cc1[C@@H](NC(C)=O)CC2,T/C,"dose: 28.0 mg/kg/injection, schedule: Q01DX Z (ip), vehicle: carboxymethylcellulose (CMC)",125 % of control
same,T/C,"dose: 37.5 mg/kg/injection, schedule: Q01DX009 (ip), vehicle: saline with Tween-80",130 % of control
same,T/C,"dose: 45.0 mg/kg/injection, schedule: Q01DX Z (ip), vehicle: carboxymethylcellulose (CMC)",132 % of control
same,survivor count,"dose: 60.0 mg/kg/injection, schedule: Q01DX015 (ip), vehicle: carboxymethylcellulose (CMC)",2 of 6
same,T/C,"dose: 65.0 mg/kg/injection, schedule: Q01DX Z (ip), vehicle: carboxymethylcellulose (CMC)",143 % of control
same,survivor count,"dose: 90.0 mg/kg/injection, schedule: Q01DX015 (ip), vehicle: carboxymethylcellulose (CMC)",0 of 6
same,survivor count,"dose: 100.0 mg/kg/injection, schedule: Q01DX Z (ip), vehicle: saline",5 of 6
same,T/C,[1],128 % of control [5 of 6 alive]
same,survivor count,"dose: 135.0 mg/kg/injection, schedule: Q01DX015 (ip), vehicle: carboxymethylcellulose (CMC)",0 of 6
same,T/C,"dose: 180.0 mg/kg/injection, schedule: Q01DX001 (ip), vehicle: carboxymethylcellulose (CMC)",127 and 145 % of control
same,T/C,"dose: 200.0 mg/kg/injection, schedule: Q01DX001 (ip), vehicle: carboxymethylcellulose (CMC)",129 % of control
same,T/C,"dose: 200.0 mg/kg/injection, schedule: Q01DX009 (ip), vehicle: saline sonified",132 % of control
same,T/C,"dose: 265.0 mg/kg/injection, schedule: Q01DX001 (ip), vehicle: carboxymethylcellulose (CMC)",125 and 134 % of control [4 of 6 alive]
same,survivor count,"dose: 400.0 mg/kg/injection, schedule: Q01DX001 (ip), vehicle: carboxymethylcellulose (CMC)",0 of 6
same,T/C,[2],144 % of control
same,survivor count,[2],0 of 6
O=[N+]([O-])c1cnccc1Nc1ccncc1,survivor count,"dose: 400.0 mg/kg/injection, schedule: Q04DX003 (ip), vehicle: saline with Tween-80",5 of 6
C=CCOC(=O)CCCCC(=O)OCC=C,survivor count,[3],0 of 6
same,survivor count,[4],0 of 6
Cc1ccc(N2CCN(CCCN3CCN(c4ccccc4Cl)CC3)CC2)cc1,survivor count,"dose: 6.25 mg/kg/injection, schedule: Q04DX003 (ip), vehicle: saline",6 of 6
same,survivor count,[1],6 of 6
same,survivor count,"dose: 200.0 mg/kg/injection, schedule: Q04DX003 (ip), vehicle: Klucel (hydroxypropylcellulose) (HPC)",1 of 6
same,survivor count,"dose: 400.0 mg/kg/injection, schedule: Q04DX003 (ip), vehicle: Klucel (hydroxypropylcellulose) (HPC)",0 of 6
CCCNC1=C(C)C(=O)C2=C(C1=O)[C@H](COC(N)=O)[C@]1(OC)[C@@H]3N[C@@H]3CN21,T/C,"dose: 1.5 mg/kg/injection, schedule: Q01DX009 (ip), vehicle: acetone",129 % of control
same,T/C,"dose: 2.7 mg/kg/injection, schedule: Q01DX009 (ip), vehicle: acetone",145 % of control
same,T/C,"dose: 6.6 mg/kg/injection, schedule: Q01DX001 (ip), vehicle: acetone",135 % of control
same,T/C,"dose: 9.9 mg/kg/injection, schedule: Q01DX001 (ip), vehicle: acetone",143 % of control
Nc1nc(N)c2nc(CNc3ccc(C(=O)NC(CCC(=O)O)C(=O)O)nc3)cnc2n1 (centres undefined),T/C,"dose: 0.3 mg/kg/injection, schedule: Q01DX009 (ip), vehicle: Klucel (hydroxypropylcellulose) (HPC)",143 % of control
same,survivor count,"dose: 0.62 mg/kg/injection, schedule: Q01DX009 (ip), vehicle: Klucel (hydroxypropylcellulose) (HPC)",6 of 6
same,survivor count,"dose: 1.25 mg/kg/injection, schedule: Q01DX009 (ip), vehicle: Klucel (hydroxypropylcellulose) (HPC)",5 of 6
same,survivor count,"dose: 2.5 mg/kg/injection, schedule: Q01DX009 (ip), vehicle: Klucel (hydroxypropylcellulose) (HPC)",5 of 6
same,survivor count,"dose: 5.0 mg/kg/injection, schedule: Q01DX009 (ip), vehicle: Klucel (hydroxypropylcellulose) (HPC)",3 of 6 and 4 of 6
same,survivor count,"dose: 10.0 mg/kg/injection, schedule: Q01DX009 (ip), vehicle: Klucel (hydroxypropylcellulose) (HPC)",0 of 6
same,survivor count,"dose: 20.0 mg/kg/injection, schedule: Q01DX009 (ip), vehicle: Klucel (hydroxypropylcellulose) (HPC)",1 of 6
same,survivor count,"dose: 40.0 mg/kg/injection, schedule: Q01DX009 (ip), vehicle: Klucel (hydroxypropylcellulose) (HPC)",2 of 6
same,T/C,"dose: 66.0 micrograms/kg/injection, schedule: Q01DX009 (ip), vehicle: Klucel (hydroxypropylcellulose) (HPC)",130 % of control
same,T/C,"dose: 300.0 micrograms/kg/injection, schedule: Q01DX009 (ip), vehicle: Klucel (hydroxypropylcellulose) (HPC)",144 % of control
Nc1[nH]c(=O)ncc1-c1ccc(Cl)cc1,survivor count,[5],0 of 3
Cc1ccc(C(C)C)cc1NC(=O)/C=C/c1ccccc1,T/C,"dose: 25.0 mg/kg/injection, schedule: Q01DX009 (ip), vehicle: saline with Tween-80","87 (2×), 88, 98 % of control"
same,T/C,[6],"87, 91, 97 % of control"
same,survivor count,[6],6 of 6
same,survivor count,"dose: 100.0 mg/kg/injection, schedule: Q01DX001 (ip), vehicle: saline with Tween-80",6 of 6
same,survivor count,"dose: 100.0 mg/kg/injection, schedule: Q01DX009 (ip), vehicle: saline with Tween-80",3 of 3 and 6 of 6
same,survivor count,[3],3 of 3 and 6 of 6
same,survivor count,[4],3 of 3 and 6 of 6
CCN(CC)Cc1ccccc1,survivor count,"dose: 150.0 mg/kg/injection, schedule: Q01DX001 (ip), vehicle: other",1 of 6
same,survivor count,"dose: 300.0 mg/kg/injection, schedule: Q01DX001 (ip), vehicle: other",0 of 6
O=C(Nc1ccc(C2=NCCCN2)cc1)Nc1ccc(NC(=O)Nc2ccc(C3=NCCCN3)cc2)c(Cl)c1,T/C,"dose: 8.0 mg/kg/injection, schedule: Q01DX Z (ip), vehicle: carboxymethylcellulose (CMC)",126 % of control
same,T/C,"dose: 16.0 mg/kg/injection, schedule: Q01DX Z (ip), vehicle: carboxymethylcellulose (CMC)",137 % of control
same,T/C,"dose: 31.0 mg/kg/injection, schedule: Q01DX Z (ip), vehicle: carboxymethylcellulose (CMC)",131 % of control
same,T/C,"dose: 62.0 mg/kg/injection, schedule: Q01DX Z (ip), vehicle: carboxymethylcellulose (CMC)",127 % of control
same,survivor count,"dose: 125.0 mg/kg/injection, schedule: Q01DX Z (ip), vehicle: carboxymethylcellulose (CMC)",6 of 6
same,survivor count,"dose: 250.0 mg/kg/injection, schedule: Q01DX Z (ip), vehicle: carboxymethylcellulose (CMC)",5 of 6
same,survivor count,"dose: 500.0 mg/kg/injection, schedule: Q01DX Z (ip), vehicle: carboxymethylcellulose (CMC)",3 of 6
CCC(C)N(C)/N=N/c1nc[nH]c1C(N)=O (centres undefined),T/C,"dose: 12.5 mg/kg/injection, schedule: Q01DX009 (ip), vehicle: water",127 % of control
same,T/C,"dose: 25.0 mg/kg/injection, schedule: Q01DX009 (ip), vehicle: Klucel (hydroxypropylcellulose) (HPC)",135 % of control
same,T/C,"dose: 25.0 mg/kg/injection, schedule: Q01DX009 (ip), vehicle: water",143 % of control
same,T/C,"dose: 38.0 mg/kg/injection, schedule: Q01DX009 (ip), vehicle: Klucel (hydroxypropylcellulose) (HPC)",146 % of control
same,T/C,"dose: 50.0 mg/kg/injection, schedule: Q04DX003 (ip), vehicle: water",132 % of control
same,T/C,"dose: 58.0 mg/kg/injection, schedule: Q01DX009 (ip), vehicle: Klucel (hydroxypropylcellulose) (HPC)",146 % of control
same,T/C,"dose: 88.0 mg/kg/injection, schedule: Q01DX009 (ip), vehicle: Klucel (hydroxypropylcellulose) (HPC)",146 % of control
same,T/C,"dose: 100.0 mg/kg/injection, schedule: Q04DX003 (ip), vehicle: water",137 % of control
same,survivor count,[5],2 of 6
same,T/C,"dose: 200.0 mg/kg/injection, schedule: Q04DX003 (ip), vehicle: saline with Tween-80",127 % of control
same,T/C,"dose: 200.0 mg/kg/injection, schedule: Q04DX003 (ip), vehicle: water",147 % of control
same,survivor count,"dose: 300.0 mg/kg/injection, schedule: Q01DX009 (ip), vehicle: Klucel (hydroxypropylcellulose) (HPC)",1 of 6
same,T/C,"dose: 300.0 mg/kg/injection, schedule: Q04DX003 (ip), vehicle: saline with Tween-80",129 % of control
same,T/C,"dose: 400.0 mg/kg/injection, schedule: Q01DX001 (ip), vehicle: water",137 % of control [9 of 10 alive]
same,survivor count,"dose: 400.0 mg/kg/injection, schedule: Q04DX003 (ip), vehicle: water",10 of 10
